In US20060142187A1:
No constants are given. Whether binding was seen depends on the method and setting. Some results given as binding are weak or reduced against the parent protein; the word gives no strength.

Molecular target: T1, C1s (UniProt P09871)
T1 sequence (looked up): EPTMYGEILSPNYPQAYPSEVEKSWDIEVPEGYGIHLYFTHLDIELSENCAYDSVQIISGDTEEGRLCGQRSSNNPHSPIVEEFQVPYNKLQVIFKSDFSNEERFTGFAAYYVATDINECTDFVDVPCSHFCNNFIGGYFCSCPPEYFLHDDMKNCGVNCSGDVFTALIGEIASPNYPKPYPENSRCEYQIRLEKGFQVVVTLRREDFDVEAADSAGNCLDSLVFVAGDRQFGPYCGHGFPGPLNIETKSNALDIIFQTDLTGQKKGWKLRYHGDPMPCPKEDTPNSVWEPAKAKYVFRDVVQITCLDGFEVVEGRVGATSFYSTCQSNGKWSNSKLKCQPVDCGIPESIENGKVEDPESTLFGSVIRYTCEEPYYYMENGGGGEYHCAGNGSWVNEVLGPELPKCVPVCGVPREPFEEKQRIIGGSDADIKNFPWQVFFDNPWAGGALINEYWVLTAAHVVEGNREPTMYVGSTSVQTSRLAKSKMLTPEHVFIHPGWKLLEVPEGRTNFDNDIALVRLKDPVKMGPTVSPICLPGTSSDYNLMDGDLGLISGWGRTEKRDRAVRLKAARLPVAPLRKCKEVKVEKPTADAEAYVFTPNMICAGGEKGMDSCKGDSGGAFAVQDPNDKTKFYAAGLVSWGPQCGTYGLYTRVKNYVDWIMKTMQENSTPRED
Experiment: complex-formation assay, SDS-PAGE with Coomassie stain

binding: binds
B1: human plasma-derived C1 inhibitor (C1INH) (protein)
chain: NPNATSSSSQDPESLQDRGEGKVATTVISKMLFVEPILEVSSLPTTNSTTNSATKITANTTDEPTTQPTTEPTTQPTIQPTQPTTQLPTDSPTQPTTGSFCPGPVTLCSDLESHSTEAVLGDALVDFSLKLYHAFSAMKKVETNMAFSPFSIASLLTQVLLGAGENTKTNLESILSYPKDFTCVHQALKGFTTKGVTSVSQIFHSPDLAIRDTFVNASRTLYSSSPRVLSNNSDANLELINTWVAKNTNNKISRLLDSLPSDTRLVLLNAIYLSAKWKTTFDPKKTRMEPFHFKNSVIKVPMMNSKKYPVAHFIDQTLKAKVGQLQLSHNLSLVILVPQNLKHRLEDMEQALSPSVFKAIMEKLEMSKFQPTLLTLPRIKVTTSQDMLSIMEKLEFFDFSYDLNLCGLTEDPDLQVSAMQHQTVLELTETGVEAAAASAISVARTLLVFEVQQPFLFVLWDQQHKFPVFMGRVYDPRA
modifications: natively glycosylated; carries a sialyl Lewis x-related moiety on its N-glycan
